# Data published in the supplement of paper PMC8728848.
# This is one part of the list.
# B1: Actd5 (Actinidia), P84527 (protein)
# chain: ISSCNGPCRDLNDCDGQLICIKGKCNDDPQVGTHICRGTTHSHQPGGCKPSGTLTCRGKSYPTYDCSPPVTSSTPAKLTNNDFSEGGDDGGPSECDESYHNNNERIVALSTGWYNGGSRCGKMIRITASNGKSVSAKVVDECDSRHGCDKEHAGQPPCRNNIVDGSNAVWSALGLDKNVGVVDITWSMA
# How the values were obtained:
# Assay in all cases: glycan array binding signal (z-score within array); higher = stronger binding
# Conditions in all cases: glycan notation: IUPAC condensed, linker removed
# [1] = biological target: Gal(b1-4)GlcNAc(b1-3)Gal(b1-4)GlcNAc(b1-3)[Gal(b1-4)GlcNAc(b1-3)Gal(b1-4)GlcNAc(b1-6)]GalNAc
# Outline: (§1)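 The Consortium for Functional Glycomics database supplied 3228 glycan arrays, of which those lacking an available protein sequence were dropped. The binding signal, a within-array Z-score, was averaged across arrays of the same protein sequence and across linkers. Negative scores can be read as non-binding.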
# [2] = biological target: Gal(b1-4)GlcNAc(b1-3)Gal(b1-4)GlcNAc(b1-6)[Gal(b1-3)]GalNAc
# Outline: as §1
# [3] = biological target: Gal(b1-4)GlcNAc(b1-3)Gal(b1-4)[Fuc(a1-3)]GlcNAc(b1-3)Gal(b1-4)[Fuc(a1-3)]GlcNAc
# Outline: as §1
# [4] = biological target: Gal(b1-4)GlcNAc(b1-3)GalNAc
# Outline: as §1
# [5] = biological target: Gal(b1-4)GlcNAc(b1-3)[Fuc(a1-3)GlcNAc(b1-6)]Gal(b1-4)Glc
# Outline: as §1
# [6] = biological target: Gal(b1-4)GlcNAc(b1-3)[Gal(b1-4)GlcNAc(b1-6)]Gal(b1-4)GlcNAc
# Outline: as §1
# [7] = biological target: Gal(b1-4)GlcNAc(b1-3)[GlcNAc(b1-6)]Gal(b1-4)GlcNAc
# Outline: as §1
# [8] = biological target: Gal(b1-4)GlcNAc(b1-6)Gal(b1-4)GlcNAc
# Outline: as §1
# [9] = biological target: Gal(b1-4)GlcNAc(b1-6)GalNAc
# Outline: as §1
# [10] = biological target: Gal(b1-4)GlcNAc(b1-6)[Gal(b1-3)]GalNAc
# Outline: as §1
# [11] = biological target: Gal(b1-4)GlcNAc(b1-6)[Gal(b1-4)GlcNAc(b1-3)]GalNAc
# Outline: as §1
# Gal(b1-4)GlcNAc6P = biological target: Gal(b1-4)GlcNAc6P
# Outline: as §1
# Gal(b1-6)Gal = biological target: Gal(b1-6)Gal
# Outline: as §1
# Gal3S(b1-3)GalNAc = biological target: Gal3S(b1-3)GalNAc
# Outline: as §1
# Gal3S(b1-3)GlcNAc = biological target: Gal3S(b1-3)GlcNAc
# Outline: as §1
# [12] = biological target: Gal3S(b1-3)[Fuc(a1-4)]GlcNAc
# Outline: as §1
# Gal3S(b1-4)Glc = biological target: Gal3S(b1-4)Glc
# Outline: as §1
# Gal3S(b1-4)Glc6S = biological target: Gal3S(b1-4)Glc6S
# Outline: as §1
# Gal3S(b1-4)GlcNAc = biological target: Gal3S(b1-4)GlcNAc
# Outline: as §1
# [13] = biological target: Gal3S(b1-4)[Fuc(a1-3)]Glc6S
# Outline: as §1
# [14] = biological target: Gal3S(b1-4)[Fuc(a1-3)]GlcNAc
# Outline: as §1
# [15] = biological target: Gal3S(b1-4)[Fuc(a1-3)]GlcNAc6S
# Outline: as §1
# Gal3S4S(b1-4)GlcNAc = biological target: Gal3S4S(b1-4)GlcNAc
# Outline: as §1
# Gal3S6S(b1-4)GlcNAc = biological target: Gal3S6S(b1-4)GlcNAc
# Outline: as §1
# Gal3S6S(b1-4)GlcNAc6S = biological target: Gal3S6S(b1-4)GlcNAc6S
# Outline: as §1
# Gal4S(b1-4)GlcNAc = biological target: Gal4S(b1-4)GlcNAc
# Outline: as §1
# Gal4S6S(b1-4)GlcNAc = biological target: Gal4S6S(b1-4)GlcNAc
# Outline: as §1
# Gal6P(b1-4)GlcNAc = biological target: Gal6P(b1-4)GlcNAc
# Outline: as §1
# Gal6S(b1-3)GlcNAc = biological target: Gal6S(b1-3)GlcNAc
# Outline: as §1
# Gal6S(b1-3)GlcNAc6S = biological target: Gal6S(b1-3)GlcNAc6S
# Outline: as §1
# Gal6S(b1-4)Glc = biological target: Gal6S(b1-4)Glc
# Outline: as §1
# Gal6S(b1-4)Glc6S = biological target: Gal6S(b1-4)Glc6S
# Outline: as §1
# Gal6S(b1-4)GlcNAc = biological target: Gal6S(b1-4)GlcNAc
# Outline: as §1
# Gal6S(b1-4)GlcNAc6S = biological target: Gal6S(b1-4)GlcNAc6S
# Outline: as §1
# GalNAc(a1-3)Gal = biological target: GalNAc(a1-3)Gal
# Outline: as §1
# GalNAc(a1-3)GalNAc = biological target: GalNAc(a1-3)GalNAc
# Outline: as §1
# [16] = biological target: GalNAc(a1-3)GalNAc(b1-3)Gal(a1-4)Gal(b1-4)Glc
# Outline: as §1
# [17] = biological target: GalNAc(a1-3)GalNAc(b1-3)Gal(a1-4)Gal(b1-4)GlcNAc
# Outline: as §1
# GalNAc(b1-3)Gal = biological target: GalNAc(b1-3)Gal
# Outline: as §1
# [18] = biological target: GalNAc(b1-3)Gal(a1-4)Gal(b1-4)GlcNAc
# Outline: as §1
# [19] = biological target: GalNAc(b1-3)Gal(a1-4)Gal(b1-4)GlcNAc(b1-3)Gal(b1-4)Glc
# Outline: as §1
# [20] = biological target: GalNAc(b1-3)Gal(a1-6)Gal(b1-4)Glc
# Outline: as §1
# GalNAc(b1-3)GalNAc = biological target: GalNAc(b1-3)GalNAc
# Outline: as §1
# GalNAc(b1-3)GlcNAc = biological target: GalNAc(b1-3)GlcNAc
# Outline: as §1
# GalNAc(b1-4)Gal(b1-4)Glc = biological target: GalNAc(b1-4)Gal(b1-4)Glc
# Outline: as §1
binder,measurement,setting,value
B1,glycan array binding signal (z-score),[1],2.99
same,glycan array binding signal (z-score),[2],0.533
same,glycan array binding signal (z-score),[3],-0.74
same,glycan array binding signal (z-score),[4],0.34
same,glycan array binding signal (z-score),[5],0.348
same,glycan array binding signal (z-score),[6],-0.117
same,glycan array binding signal (z-score),[7],-0.668
same,glycan array binding signal (z-score),[8],-0.054
same,glycan array binding signal (z-score),[9],0.07
same,glycan array binding signal (z-score),[10],-0.525
same,glycan array binding signal (z-score),[11],-0.2
same,glycan array binding signal (z-score),Gal(b1-4)GlcNAc6P,-1.05
same,glycan array binding signal (z-score),Gal(b1-6)Gal,0.111
same,glycan array binding signal (z-score),Gal3S(b1-3)GalNAc,-0.462
same,glycan array binding signal (z-score),Gal3S(b1-3)GlcNAc,-0.689
same,glycan array binding signal (z-score),[12],-0.284
same,glycan array binding signal (z-score),Gal3S(b1-4)Glc,-0.122
same,glycan array binding signal (z-score),Gal3S(b1-4)Glc6S,0.439
same,glycan array binding signal (z-score),Gal3S(b1-4)GlcNAc,-0.351
same,glycan array binding signal (z-score),[13],-0.26
same,glycan array binding signal (z-score),[14],-0.319
same,glycan array binding signal (z-score),[15],0.505
same,glycan array binding signal (z-score),Gal3S4S(b1-4)GlcNAc,-0.195
same,glycan array binding signal (z-score),Gal3S6S(b1-4)GlcNAc,0.094
same,glycan array binding signal (z-score),Gal3S6S(b1-4)GlcNAc6S,-0.252
same,glycan array binding signal (z-score),Gal4S(b1-4)GlcNAc,-0.749
same,glycan array binding signal (z-score),Gal4S6S(b1-4)GlcNAc,-0.468
same,glycan array binding signal (z-score),Gal6P(b1-4)GlcNAc,0.385
same,glycan array binding signal (z-score),Gal6S(b1-3)GlcNAc,-0.775
same,glycan array binding signal (z-score),Gal6S(b1-3)GlcNAc6S,-0.772
same,glycan array binding signal (z-score),Gal6S(b1-4)Glc,-0.649
same,glycan array binding signal (z-score),Gal6S(b1-4)Glc6S,-0.703
same,glycan array binding signal (z-score),Gal6S(b1-4)GlcNAc,-1.08
same,glycan array binding signal (z-score),Gal6S(b1-4)GlcNAc6S,-0.506
same,glycan array binding signal (z-score),GalNAc(a1-3)Gal,-1.15
same,glycan array binding signal (z-score),GalNAc(a1-3)GalNAc,-0.951
same,glycan array binding signal (z-score),[16],-0.805
same,glycan array binding signal (z-score),[17],-0.148
same,glycan array binding signal (z-score),GalNAc(b1-3)Gal,0.368
same,glycan array binding signal (z-score),[18],0.341
same,glycan array binding signal (z-score),[19],-0.181
same,glycan array binding signal (z-score),[20],-0.63
same,glycan array binding signal (z-score),GalNAc(b1-3)GalNAc,-0.923
same,glycan array binding signal (z-score),GalNAc(b1-3)GlcNAc,-0.78
same,glycan array binding signal (z-score),GalNAc(b1-4)Gal(b1-4)Glc,-0.246

# Reformatted: results already given
binder	measurement	setting	value
B1	glycan array binding signal (z-score)	Gal3S6S(b1-4)GlcNAc	0.094
same	glycan array binding signal (z-score)	GalNAc(a1-3)GalNAc	-0.951
same	glycan array binding signal (z-score)	[16]	-0.805
